No constants are given. Whether binding was seen depends on the method and setting. In cells and extracts the contact can be indirect. Some results given as binding are weak or reduced against the parent protein; the word gives no strength.
Columns and labels:
[1] = biological target: 3xFLAG-TERT (telomerase reverse transcriptase) (human) (UniProt O14746); assay: co-IP
[2] = biological target: 3xFLAG-HaloTag-TERT modified with biotin (human) (UniProt O14746); assay: co-IP

Amino acid sequences for entries named in this document (tags omitted).
UniProt O14746: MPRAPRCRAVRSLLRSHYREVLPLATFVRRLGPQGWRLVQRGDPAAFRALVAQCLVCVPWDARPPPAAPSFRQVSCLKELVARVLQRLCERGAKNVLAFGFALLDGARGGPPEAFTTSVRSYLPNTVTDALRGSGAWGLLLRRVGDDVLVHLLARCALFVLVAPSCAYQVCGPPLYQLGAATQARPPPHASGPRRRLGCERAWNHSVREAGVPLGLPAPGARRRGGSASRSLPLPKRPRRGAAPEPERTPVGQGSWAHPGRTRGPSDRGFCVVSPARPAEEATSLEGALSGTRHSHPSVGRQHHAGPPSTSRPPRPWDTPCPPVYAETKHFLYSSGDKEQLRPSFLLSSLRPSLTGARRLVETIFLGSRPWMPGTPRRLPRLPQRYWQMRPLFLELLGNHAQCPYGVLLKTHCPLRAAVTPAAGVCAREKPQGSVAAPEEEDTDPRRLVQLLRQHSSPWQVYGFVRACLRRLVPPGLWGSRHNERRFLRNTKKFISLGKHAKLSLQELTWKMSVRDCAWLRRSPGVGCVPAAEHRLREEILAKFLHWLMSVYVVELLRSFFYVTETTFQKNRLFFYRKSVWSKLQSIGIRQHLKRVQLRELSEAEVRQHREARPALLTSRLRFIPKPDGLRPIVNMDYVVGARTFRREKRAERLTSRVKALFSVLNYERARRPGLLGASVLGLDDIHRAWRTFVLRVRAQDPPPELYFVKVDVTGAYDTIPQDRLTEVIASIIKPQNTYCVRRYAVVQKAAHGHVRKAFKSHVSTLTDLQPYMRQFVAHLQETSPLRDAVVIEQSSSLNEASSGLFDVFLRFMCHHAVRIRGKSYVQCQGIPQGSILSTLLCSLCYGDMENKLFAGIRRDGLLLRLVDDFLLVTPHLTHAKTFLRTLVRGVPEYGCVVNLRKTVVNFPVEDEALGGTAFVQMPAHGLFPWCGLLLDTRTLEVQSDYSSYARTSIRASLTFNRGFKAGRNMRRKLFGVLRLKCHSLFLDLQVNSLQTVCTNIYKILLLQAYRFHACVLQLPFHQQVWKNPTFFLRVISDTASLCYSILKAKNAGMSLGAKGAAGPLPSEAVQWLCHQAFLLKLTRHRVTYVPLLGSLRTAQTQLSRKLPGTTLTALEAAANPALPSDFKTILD
UniProt Q9BUR4: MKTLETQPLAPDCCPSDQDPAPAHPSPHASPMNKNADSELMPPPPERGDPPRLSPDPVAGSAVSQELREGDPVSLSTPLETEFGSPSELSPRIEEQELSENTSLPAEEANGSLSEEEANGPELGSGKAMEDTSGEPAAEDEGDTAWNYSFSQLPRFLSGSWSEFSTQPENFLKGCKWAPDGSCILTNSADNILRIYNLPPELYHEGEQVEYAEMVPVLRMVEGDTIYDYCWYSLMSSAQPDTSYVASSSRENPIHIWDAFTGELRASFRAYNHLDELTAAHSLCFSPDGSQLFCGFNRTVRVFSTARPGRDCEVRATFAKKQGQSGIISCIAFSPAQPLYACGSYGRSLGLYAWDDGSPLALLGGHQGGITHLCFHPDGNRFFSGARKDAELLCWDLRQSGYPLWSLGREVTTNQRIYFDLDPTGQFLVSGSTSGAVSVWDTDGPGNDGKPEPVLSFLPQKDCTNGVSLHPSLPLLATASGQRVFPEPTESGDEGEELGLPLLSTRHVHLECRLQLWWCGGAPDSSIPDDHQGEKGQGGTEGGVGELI

Molecule	binding [1]	binding [2]
TCAB1 (from UniProt Q9BUR4 1-548)	binds	binds
dyskerin (protein, UniProt O60832 1-514) MADAEVIILPKKHKKKKERKSLPEEDVAEIQHAEEFLIKPESKVAKLDTSQWPLLLKNFDKLNVRTTHYTPLACGSNPLKREIGDYIRTGFINLDKPSNPSSHEVVAWIRRILRVEKTGHSGTLDPKVTGCLIVCIERATRLVKSQQSAGKEYVGIVRLHNAIEGGTQLSRALETLTGALFQRPPLIAAVKRQLRVRTIYESKMIEYDPERRLGIFWVSCEAGTYIRTLCVHLGLLLGVGGQMQELRRVRSGVMSEKDHMVTMHDVLDAQWLYDNHKDESYLRRVVYPLEKLLTSHKRLVMKDSAVNAICYGAKIMLPGVLRYEDGIEVNQEIVVITTKGEAICMAIALMTTAVISTCDHGIVAKIKRVIMERDTYPRKWGLGPKASQKKLMIKQGLLDKHGKPTDSTPATWKQEYVDYSESAKKEVVAEVVKAPQVVAEAAKTAKRKRESESESDETPPAAPQLIKKEKKKSKKDKKAKAGLESGAEPGDGDSDTTKKKKKKKKAKEVELVSE	binds	binds

From doi:10.1101/700294
